Source: the supplement of paper PMC10849652
The list shows a part of the results.

Amino acid sequences for entries named in this document (tags omitted). A change or cut given only in a name is not applied to a line headed by its entry.
UniProt P35637: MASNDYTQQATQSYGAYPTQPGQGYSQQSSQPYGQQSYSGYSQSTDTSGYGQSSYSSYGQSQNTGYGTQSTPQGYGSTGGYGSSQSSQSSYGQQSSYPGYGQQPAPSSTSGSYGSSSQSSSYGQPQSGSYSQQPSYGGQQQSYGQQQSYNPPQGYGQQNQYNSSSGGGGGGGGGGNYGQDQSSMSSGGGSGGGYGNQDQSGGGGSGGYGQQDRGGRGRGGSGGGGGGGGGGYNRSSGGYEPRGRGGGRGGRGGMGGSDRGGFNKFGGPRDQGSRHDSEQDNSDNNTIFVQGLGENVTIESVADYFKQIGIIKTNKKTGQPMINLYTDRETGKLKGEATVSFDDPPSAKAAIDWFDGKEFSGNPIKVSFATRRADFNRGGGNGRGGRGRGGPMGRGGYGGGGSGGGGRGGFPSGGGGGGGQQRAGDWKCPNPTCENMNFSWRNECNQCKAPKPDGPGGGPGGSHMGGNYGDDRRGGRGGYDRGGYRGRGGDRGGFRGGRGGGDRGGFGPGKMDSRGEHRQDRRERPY
UniProt Q9NZC3: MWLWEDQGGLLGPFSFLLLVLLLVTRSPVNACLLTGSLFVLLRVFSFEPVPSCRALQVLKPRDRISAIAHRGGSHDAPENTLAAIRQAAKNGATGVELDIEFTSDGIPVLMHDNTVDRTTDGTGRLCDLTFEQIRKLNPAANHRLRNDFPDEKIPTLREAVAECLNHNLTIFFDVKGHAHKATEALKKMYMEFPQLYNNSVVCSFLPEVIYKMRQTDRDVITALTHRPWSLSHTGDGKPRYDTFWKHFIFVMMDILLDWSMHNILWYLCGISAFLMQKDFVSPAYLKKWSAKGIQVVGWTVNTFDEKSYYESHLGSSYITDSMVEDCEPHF
UniProt Q86SF2: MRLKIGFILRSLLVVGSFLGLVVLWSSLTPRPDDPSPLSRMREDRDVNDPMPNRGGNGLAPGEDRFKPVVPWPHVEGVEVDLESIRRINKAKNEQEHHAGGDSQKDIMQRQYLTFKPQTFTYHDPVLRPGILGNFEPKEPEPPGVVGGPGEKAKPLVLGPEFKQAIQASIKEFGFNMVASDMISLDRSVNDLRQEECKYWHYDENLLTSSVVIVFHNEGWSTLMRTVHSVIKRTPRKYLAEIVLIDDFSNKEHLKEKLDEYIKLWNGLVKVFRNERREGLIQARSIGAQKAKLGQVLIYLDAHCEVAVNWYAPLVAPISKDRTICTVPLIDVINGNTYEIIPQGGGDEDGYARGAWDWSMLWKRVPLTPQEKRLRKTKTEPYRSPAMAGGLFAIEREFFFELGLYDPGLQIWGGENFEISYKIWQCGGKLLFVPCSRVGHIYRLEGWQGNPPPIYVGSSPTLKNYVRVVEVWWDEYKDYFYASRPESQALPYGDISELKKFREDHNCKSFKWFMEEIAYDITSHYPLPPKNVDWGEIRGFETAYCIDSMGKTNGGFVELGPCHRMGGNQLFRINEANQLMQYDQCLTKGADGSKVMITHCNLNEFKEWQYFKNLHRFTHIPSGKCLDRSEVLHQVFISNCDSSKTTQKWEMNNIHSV
UniProt Q8NB37: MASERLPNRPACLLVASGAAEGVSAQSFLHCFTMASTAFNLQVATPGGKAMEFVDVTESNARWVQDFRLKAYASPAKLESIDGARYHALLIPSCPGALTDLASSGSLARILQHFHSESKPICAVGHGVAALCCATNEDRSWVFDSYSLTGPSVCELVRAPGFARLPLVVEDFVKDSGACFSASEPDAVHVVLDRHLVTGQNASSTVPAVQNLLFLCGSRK
UniProt P09958, whole entry, looked up: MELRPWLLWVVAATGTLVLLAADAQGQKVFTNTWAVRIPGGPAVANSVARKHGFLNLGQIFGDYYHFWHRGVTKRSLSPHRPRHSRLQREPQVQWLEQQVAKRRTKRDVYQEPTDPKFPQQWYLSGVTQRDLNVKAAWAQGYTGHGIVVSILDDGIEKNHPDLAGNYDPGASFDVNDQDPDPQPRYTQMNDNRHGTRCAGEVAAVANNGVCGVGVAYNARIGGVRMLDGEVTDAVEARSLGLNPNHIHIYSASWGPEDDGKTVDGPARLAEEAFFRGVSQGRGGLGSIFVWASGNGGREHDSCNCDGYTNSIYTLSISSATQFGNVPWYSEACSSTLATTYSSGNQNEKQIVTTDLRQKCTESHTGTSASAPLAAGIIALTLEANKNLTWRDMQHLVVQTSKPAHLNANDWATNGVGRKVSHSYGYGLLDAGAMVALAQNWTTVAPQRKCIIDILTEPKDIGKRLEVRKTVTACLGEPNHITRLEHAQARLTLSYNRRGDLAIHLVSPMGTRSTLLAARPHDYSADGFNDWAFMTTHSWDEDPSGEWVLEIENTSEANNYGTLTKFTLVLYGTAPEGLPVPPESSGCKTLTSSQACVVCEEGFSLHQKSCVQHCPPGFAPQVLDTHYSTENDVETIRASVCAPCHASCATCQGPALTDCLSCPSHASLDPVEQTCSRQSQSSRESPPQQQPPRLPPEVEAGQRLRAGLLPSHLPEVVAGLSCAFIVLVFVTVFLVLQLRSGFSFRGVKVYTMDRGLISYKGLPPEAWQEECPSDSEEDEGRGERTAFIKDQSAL
UniProt Q86YP4: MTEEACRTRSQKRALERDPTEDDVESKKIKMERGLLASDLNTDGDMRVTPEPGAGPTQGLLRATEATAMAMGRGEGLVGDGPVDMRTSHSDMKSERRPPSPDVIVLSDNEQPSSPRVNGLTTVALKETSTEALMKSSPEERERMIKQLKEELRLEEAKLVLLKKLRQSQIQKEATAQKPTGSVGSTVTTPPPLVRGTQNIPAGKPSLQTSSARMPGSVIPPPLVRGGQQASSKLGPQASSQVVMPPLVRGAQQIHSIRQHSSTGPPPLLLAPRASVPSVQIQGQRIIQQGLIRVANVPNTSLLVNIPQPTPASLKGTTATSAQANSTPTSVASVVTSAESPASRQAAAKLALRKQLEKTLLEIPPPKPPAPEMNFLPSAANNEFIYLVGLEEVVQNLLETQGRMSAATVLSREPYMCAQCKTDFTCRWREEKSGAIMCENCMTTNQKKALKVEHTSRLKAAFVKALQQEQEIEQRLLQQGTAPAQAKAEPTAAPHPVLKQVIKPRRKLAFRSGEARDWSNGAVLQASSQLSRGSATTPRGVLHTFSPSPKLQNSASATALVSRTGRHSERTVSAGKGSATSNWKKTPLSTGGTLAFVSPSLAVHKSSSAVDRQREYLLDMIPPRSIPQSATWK
UniProt Q8WTR4: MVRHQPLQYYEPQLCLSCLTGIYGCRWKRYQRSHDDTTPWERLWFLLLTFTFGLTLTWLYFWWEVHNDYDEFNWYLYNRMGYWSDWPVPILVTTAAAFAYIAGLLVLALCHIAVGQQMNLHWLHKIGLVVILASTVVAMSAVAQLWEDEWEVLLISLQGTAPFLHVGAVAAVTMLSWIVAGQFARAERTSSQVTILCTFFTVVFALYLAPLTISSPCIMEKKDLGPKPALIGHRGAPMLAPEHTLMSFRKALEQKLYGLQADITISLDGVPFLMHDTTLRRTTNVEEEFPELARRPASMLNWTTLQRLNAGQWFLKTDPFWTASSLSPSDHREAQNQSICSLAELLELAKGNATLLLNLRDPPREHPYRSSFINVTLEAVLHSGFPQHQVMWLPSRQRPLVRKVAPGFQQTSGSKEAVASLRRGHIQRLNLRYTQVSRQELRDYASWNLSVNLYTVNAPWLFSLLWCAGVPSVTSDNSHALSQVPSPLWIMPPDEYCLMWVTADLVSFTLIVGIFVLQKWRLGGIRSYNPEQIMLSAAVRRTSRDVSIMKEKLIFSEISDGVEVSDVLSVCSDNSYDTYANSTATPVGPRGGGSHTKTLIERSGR
UniProt Q10472: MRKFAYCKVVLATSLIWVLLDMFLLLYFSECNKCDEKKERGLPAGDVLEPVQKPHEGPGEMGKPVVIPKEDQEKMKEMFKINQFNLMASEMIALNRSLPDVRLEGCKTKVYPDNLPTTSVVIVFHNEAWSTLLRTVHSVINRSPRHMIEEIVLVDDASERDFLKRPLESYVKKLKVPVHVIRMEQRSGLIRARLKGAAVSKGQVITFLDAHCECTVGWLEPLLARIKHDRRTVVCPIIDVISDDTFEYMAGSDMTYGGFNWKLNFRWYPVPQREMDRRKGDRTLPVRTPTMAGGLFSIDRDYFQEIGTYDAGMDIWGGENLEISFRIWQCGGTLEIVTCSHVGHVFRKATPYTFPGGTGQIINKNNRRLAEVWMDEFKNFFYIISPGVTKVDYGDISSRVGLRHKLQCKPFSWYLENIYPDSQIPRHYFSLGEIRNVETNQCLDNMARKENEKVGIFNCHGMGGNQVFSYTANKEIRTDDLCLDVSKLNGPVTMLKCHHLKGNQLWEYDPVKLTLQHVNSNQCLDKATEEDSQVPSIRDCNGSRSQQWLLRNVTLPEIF
UniProt Q14376: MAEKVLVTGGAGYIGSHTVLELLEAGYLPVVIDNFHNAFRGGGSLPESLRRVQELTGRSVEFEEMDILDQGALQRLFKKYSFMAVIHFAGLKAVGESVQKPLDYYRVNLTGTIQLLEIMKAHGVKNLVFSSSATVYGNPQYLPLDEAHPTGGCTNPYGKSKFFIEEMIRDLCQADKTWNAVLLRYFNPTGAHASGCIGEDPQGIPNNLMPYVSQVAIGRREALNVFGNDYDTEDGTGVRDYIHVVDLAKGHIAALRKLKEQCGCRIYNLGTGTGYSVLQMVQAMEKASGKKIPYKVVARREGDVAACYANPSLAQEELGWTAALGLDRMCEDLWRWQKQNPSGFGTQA
UniProt Q96NB1: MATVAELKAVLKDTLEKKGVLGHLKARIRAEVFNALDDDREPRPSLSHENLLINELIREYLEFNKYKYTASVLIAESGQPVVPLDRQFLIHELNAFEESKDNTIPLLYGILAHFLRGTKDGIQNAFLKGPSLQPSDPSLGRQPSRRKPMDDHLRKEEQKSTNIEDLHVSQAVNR
UniProt P02794, whole entry, looked up: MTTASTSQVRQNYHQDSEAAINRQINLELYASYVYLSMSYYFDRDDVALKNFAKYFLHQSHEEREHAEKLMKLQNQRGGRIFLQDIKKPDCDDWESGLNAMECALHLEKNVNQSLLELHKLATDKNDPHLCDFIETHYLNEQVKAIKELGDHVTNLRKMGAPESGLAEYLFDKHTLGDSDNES
UniProt Q9BQS8: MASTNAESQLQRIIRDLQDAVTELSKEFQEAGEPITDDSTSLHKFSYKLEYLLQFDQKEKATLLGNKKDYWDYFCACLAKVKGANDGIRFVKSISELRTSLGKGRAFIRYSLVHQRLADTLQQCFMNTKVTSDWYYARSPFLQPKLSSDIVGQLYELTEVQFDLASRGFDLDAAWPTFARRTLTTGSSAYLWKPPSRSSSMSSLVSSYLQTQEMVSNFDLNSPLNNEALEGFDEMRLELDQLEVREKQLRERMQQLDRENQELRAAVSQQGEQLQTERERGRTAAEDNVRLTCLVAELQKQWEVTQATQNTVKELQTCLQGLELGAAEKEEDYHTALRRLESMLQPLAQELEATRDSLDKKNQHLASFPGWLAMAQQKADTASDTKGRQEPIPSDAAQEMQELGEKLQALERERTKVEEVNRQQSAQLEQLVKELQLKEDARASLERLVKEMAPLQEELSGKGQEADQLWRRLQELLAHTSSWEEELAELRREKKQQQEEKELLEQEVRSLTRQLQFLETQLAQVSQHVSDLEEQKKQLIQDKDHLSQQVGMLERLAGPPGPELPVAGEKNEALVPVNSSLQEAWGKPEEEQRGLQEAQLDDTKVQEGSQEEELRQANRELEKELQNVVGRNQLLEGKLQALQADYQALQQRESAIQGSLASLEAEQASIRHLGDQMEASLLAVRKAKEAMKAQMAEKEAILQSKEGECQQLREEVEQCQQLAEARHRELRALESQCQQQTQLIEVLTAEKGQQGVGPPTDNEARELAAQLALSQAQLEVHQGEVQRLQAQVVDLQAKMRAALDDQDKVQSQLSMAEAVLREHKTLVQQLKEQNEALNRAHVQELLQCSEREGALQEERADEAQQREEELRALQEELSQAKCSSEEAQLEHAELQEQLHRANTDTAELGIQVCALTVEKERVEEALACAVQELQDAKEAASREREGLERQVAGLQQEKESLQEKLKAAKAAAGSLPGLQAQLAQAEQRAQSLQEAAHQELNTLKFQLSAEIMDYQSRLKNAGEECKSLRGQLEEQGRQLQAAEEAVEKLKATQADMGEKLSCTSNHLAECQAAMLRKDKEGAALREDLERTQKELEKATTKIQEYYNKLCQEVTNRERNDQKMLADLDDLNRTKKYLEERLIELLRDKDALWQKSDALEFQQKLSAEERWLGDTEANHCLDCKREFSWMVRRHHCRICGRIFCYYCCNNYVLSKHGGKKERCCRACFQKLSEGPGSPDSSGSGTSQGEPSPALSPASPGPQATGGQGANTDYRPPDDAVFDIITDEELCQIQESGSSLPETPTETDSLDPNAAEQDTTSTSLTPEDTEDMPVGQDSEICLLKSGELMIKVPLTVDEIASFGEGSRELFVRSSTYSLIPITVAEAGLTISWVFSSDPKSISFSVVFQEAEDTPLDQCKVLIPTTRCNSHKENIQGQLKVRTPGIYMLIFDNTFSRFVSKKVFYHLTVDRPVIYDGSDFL

Columns and labels:
Test in all cases: log2 fold change, soluble protein after heating vs DMSO (PISA); higher = thermal stabilisation; K562 cells, 10 uM, 30 min; active = over 0.2 and 3.5 SD of the protein, either way, in both replicates (recomputed)
[1] = compound: COC1=CC=C(C=C1)CN2C=CC3=C2C=C(C=C3)C(=O)NO
How it was run: (§1)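 Quantification of soluble protein used TMTpro 16plex LC-MS/MS, with channel sums equalised. Samples were the supernatant after 21,000xg for 90 min of pooled aliquots from K562 cells (2×10^6 cells/mL) treated with 10 μM compound for 30 min, heated for 3 min over 48°C-58°C, and extracted in PBS with 0.5% NP-40 at 4°C. Values, from duplicates, describe thermal stability against control samples on a log2 fold-change scale.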

[2] = compound: CON(C)C(=O)N1N=C(c2cc(F)ccc2F)S[C@@]1(CCCN)c1ccccc1 [filanesib]
How it was run: as §1

[3] = compound: CO[C@H]1C[C@@H]2CC[C@@H](C)[C@@](O)(O2)C(=O)C(=O)N2CCCC[C@H]2C(=O)O[C@H]([C@H](C)C[C@@H]2CC[C@H](n3cnnn3)[C@H](OC)C2)CC(=O)[C@H](C)/C=C(\C)[C@@H](O)[C@@H](OC)C(=O)[C@H](C)C[C@H](C)/C=C/C=C/C=C/1C [zotarolimus]
How it was run: as §1

[4] = compound: COc1cc(C(=O)O)ccc1NC(=O)[C@@H]1N[C@@H](CC(C)(C)C)[C@](C#N)(c2ccc(Cl)cc2F)[C@H]1c1cccc(Cl)c1F [idasanutlin]
How it was run: as §1

[5] = compound: COc1cc(Nc2ncc3c(n2)-c2ccc(Cl)cc2C(c2c(F)cccc2OC)=NC3)ccc1C(=O)O [alisertib]
How it was run: as §1

[6] = compound: COc1cc2nc(-c3cc(F)ccc3O)nc(N[C@@H]3CNC[C@H]3C(C)(C)O)c2cc1OC
How it was run: as §1

[7] = compound: COc1cc2ncnc(Nc3ccc(F)c(Cl)c3)c2cc1OCCCN1CCOCC1 [gefitinib]
How it was run: as §1

[8] = compound: COc1cccc2cc(-c3nc([C@H]4CC[C@H](C(=O)O)CC4)n4ncnc(N)c34)[nH]c12
How it was run: as §1

[9] = compound: CS(=O)(=O)CCNCc1ccc(-c2ccc3ncnc(Nc4ccc(OCc5cccc(F)c5)c(Cl)c4)c3c2)o1 [lapatinib]
How it was run: as §1

[10] = compound: CS(=O)(=O)N1CCN(Cc2cc3nc(-c4cccc5[nH]ncc45)nc(N4CCOCC4)c3s2)CC1 [pictilisib]
How it was run: as §1

Measured: log2 fold change

FUS (UniProt P35637)
inactive: [1] -0.045 | [2] 0.105 | [3] -0.022 | [4] 0.147 | [5] -0.097 | [6] 0.023 | [7] 0.016 | [8] 0.008 | [9] 0.075 | [10] -0.096

GART (UniProt C9JZG2)
inactive: [1] -0.008 | [2] -0.03 | [3] -0.052 | [4] -0.157 | [5] 0.073 | [6] 0.141 | [7] 0.143 | [8] -0.087 | [9] -0.098 | [10] 0.11

GDE1 (UniProt Q9NZC3)
inactive: [1] 0.046 | [2] -0.102 | [3] 0.043 | [4] -0.064 | [5] -0.176 | [6] 0.012 | [7] 0.008 | [8] 0.01 | [9] -0.011

FUNDC2 (UniProt Q9BWH2)
inactive: [1] -0.057 | [2] -0.052 | [3] -0.035 | [4] 0.024 | [5] -0.069 | [6] 0 | [7] 0.016 | [8] 0.057 | [9] -0.066 | [10] 0.044

FPGT (UniProt O14772)
inactive: [1] 0.001 | [2] -0.088 | [3] -0.027 | [4] -0.078 | [5] -0.048 | [6] 0.029 | [7] -0.036 | [8] 0.048 | [9] 0.042 | [10] -0.021

GCN1 (UniProt Q92616)
inactive: [1] -0.02 | [2] 0.535 | [3] 0.135 | [4] 0.283 | [5] -0.111 | [6] 0.045 | [7] -0.023 | [8] -0.408 | [9] 0.061 | [10] -0.115

GDAP1 (UniProt Q8TB36)
inactive: [1] -0.008 | [2] -0.014 | [3] -0.004 | [4] 0.017 | [5] -0.049 | [6] 0.001 | [7] 0.01 | [8] 0.05 | [9] -0.026 | [10] 0.138

GAGE2A (UniProt Q6NT46)
inactive: [1] -0.023 | [2] -0.033 | [3] 0.079 | [4] 0.079 | [5] -0.054 | [6] -0.072 | [7] 0.018 | [8] 0.072 | [9] -0.059 | [10] 0.104

GDI1 (UniProt P31150)
inactive: [1] -0.073 | [2] -0.043 | [3] 0.01 | [4] -0.056 | [5] -0.067 | [6] 0.045 | [7] -0.011 | [8] 0.037 | [9] -0.032 | [10] -0.006

FZR1 (UniProt Q9UM11)
inactive: [1] 0.154

FUT4 (UniProt P22083)
inactive: [1] -0.167

3 records picked at random from those above:
GDI1 (UniProt P31150)
inactive: [1] -0.073 | [2] -0.043 | [3] 0.01 | [4] -0.056 | [5] -0.067 | [6] 0.045 | [7] -0.011 | [8] 0.037 | [9] -0.032 | [10] -0.006

GCN1 (UniProt Q92616)
inactive: [1] -0.02 | [2] 0.535 | [3] 0.135 | [4] 0.283 | [5] -0.111 | [6] 0.045 | [7] -0.023 | [8] -0.408 | [9] 0.061 | [10] -0.115

GAGE2A (UniProt Q6NT46)
inactive: [1] -0.023 | [2] -0.033 | [3] 0.079 | [4] 0.079 | [5] -0.054 | [6] -0.072 | [7] 0.018 | [8] 0.072 | [9] -0.059 | [10] 0.104

Next part.

GEMIN6 (UniProt Q8WXD5)
inactive: [1] 0.001 | [2] 0.005 | [3] 0.154 | [4] 0.071 | [5] -0.019 | [6] 0.006 | [7] -0.003 | [8] 0.096 | [9] -0.077 | [10] 0.064

G3BP1 (UniProt Q13283)
inactive: [1] -0.013 | [2] 0.281 | [3] 0.043 | [4] 0.133 | [5] -0.054 | [6] -0.058 | [7] -0.033 | [8] -0.05 | [9] 0.063 | [10] -0.035

GALNT7 (UniProt Q86SF2)
inactive: [1] -0.011 | [2] -0.048 | [3] 0 | [4] -0.062 | [5] -0.087 | [6] -0.149 | [7] -0.005 | [8] 0.002 | [9] -0.019 | [10] 0.043

GATD1 (UniProt Q8NB37)
inactive: [1] -0.104 | [2] 0.022 | [3] -0.004 | [4] -0.038 | [5] -0.001 | [6] 0.018 | [7] -0.014 | [8] 0.052 | [9] -0.064 | [10] 0.08

GBA (UniProt P04062)
inactive: [1] -0.021 | [2] 0.042 | [3] -0.052 | [4] 0.035 | [5] 0.3 | [6] -0.098 | [7] -0.014 | [8] -0.005 | [9] 0.013 | [10] 0.011

G6PD isoform 2 (UniProt P11413)
inactive: [1] -0.006 | [2] -0.117 | [3] 0.019 | [4] 0.002 | [5] -0.03 | [6] 0.043 | [7] 0.017 | [8] 0.013 | [9] -0.017 | [10] -0.003

FURIN (UniProt P09958)
inactive: [1] 0.014 | [2] 0.006 | [3] 0.015 | [4] -0.027 | [5] 0.108 | [6] 0.038 | [7] -0.015 | [8] 0.037 | [9] -0.088 | [10] 0.024

GATAD2A isoform 3 (UniProt Q86YP4)
inactive: [1] 0.16 | [2] 0.117 | [3] 0.023 | [4] 0.025 | [5] -0.057 | [6] -0.061 | [7] 0 | [8] -0.06 | [9] -0.032 | [10] 0.013

FTO (UniProt Q9C0B1)
inactive: [1] -0.134 | [2] -0.04 | [3] -0.029 | [4] 0.046 | [5] -0.044 | [6] 0.039 | [7] 0.004 | [8] -0.013 | [9] -0.021 | [10] 0.088

GDPD5 (UniProt Q8WTR4)
inactive: [1] -0.089

GALNT1 (UniProt Q10472)
inactive: [1] 0.224 | [2] 0.058 | [3] 0.005 | [4] -0.033 | [5] 0.047 | [6] 0.044 | [7] 0.066 | [8] 0.034 | [9] 0 | [10] 0.023

GART (UniProt P22102)
inactive: [1] -0.002 | [2] -0.16 | [3] 0.068 | [4] -0.052 | [5] -0.008 | [6] -0.014 | [7] 0.145 | [8] -0.021 | [9] -0.008 | [10] -0.026

GALE (UniProt Q14376)
inactive: [1] 0 | [2] -0.056 | [3] 0.003 | [4] -0.05 | [5] -0.001 | [6] -0.001 | [7] 0.05 | [8] 0.021 | [9] 0.007 | [10] 0.06

FOPNL (UniProt Q96NB1)
inactive: [1] -0.01 | [2] 0.168 | [3] 0.03 | [4] 0.042 | [5] -0.041 | [6] -0.12 | [7] 0.331 | [8] -0.039 | [9] -0.038 | [10] 0.024

FTH1 (UniProt P02794)
inactive: [1] -0.111 | [2] 0.057 | [3] -0.019 | [4] 0.136 | [5] -0.061 | [6] -0.08 | [7] -0.071 | [8] -0.062 | [9] 0.02 | [10] -0.009

GAL (UniProt P22466)
inactive: [1] -0.067

GBA2 (UniProt Q9HCG7)
inactive: [1] -0.064 | [2] 0.117 | [3] 0.087 | [4] -0.042 | [5] 0.067 | [6] 0.049 | [7] 0.084 | [8] -0.062 | [9] 0.011

GEMIN4 (UniProt P57678)
inactive: [1] -0.051 | [2] 0.095 | [3] 0.018 | [4] 0.271 | [5] -0.305 | [6] -0.018 | [7] -0.058 | [8] -0.323 | [9] 0.16 | [10] -0.021

GGA2 (UniProt Q9UJY4)
inactive: [1] 0.012 | [2] -0.09 | [3] 0.069 | [4] -0.017 | [5] -0.067 | [6] 0.181 | [7] -0.004 | [8] 0.112 | [9] -0.027

GDI2 (UniProt Q5SX86)
inactive: [1] -0.041

G6PD (UniProt E7EUI8)
inactive: [1] -0.213

FYCO1 isoform 4 (UniProt Q9BQS8)
inactive: [1] 0.017 | [2] 0.014 | [3] 0.037 | [4] -0.069 | [5] 0.087 | [6] -0.035 | [7] -0.09 | [8] -0.028 | [9] -0.01 | [10] -0.003

GADD45GIP1 (UniProt Q8TAE8)
inactive: [1] -0.019 | [2] 0.108 | [3] 0.006 | [4] -0.041 | [5] -0.035 | [6] -0.072 | [7] -0.005 | [8] -0.011 | [9] 0.089 | [10] 0.061

FUBP3 (UniProt Q96I24)
inactive: [1] 0.129 | [2] 0.055 | [3] -0.072 | [4] 0.049 | [5] 0.034 | [6] 0.165 | [7] -0.049 | [8] 0.009 | [9] 0.006 | [10] -0.062
